Some entries share one result that the patent states for a list of compounds.
Tested on: S. aureus SA101
Assay type: cell-based
Details: SA101, plates containing compound at 5× the MIC

CN(C)[C@@H]1C(O)=C(C(N)=O)C(=O)[C@@]2(O)C(O)=C3C(=O)c4c(O)c5c(c(F)c4C[C@H]3C[C@@H]12)CN(C(C)(C)C)C5 [Compound 102] was tested, and the spontaneous resistance frequency was < 2.2×10^−10.
